# Record: PubChem BioAssay AID1259254 (NCATS, 2017)
# Aim: 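Finding genes that stop cells copying their DNA twice in one cycle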 (primary screen)
# Cell system: human HCT116 colorectal cancer cells
# Knock-down reagent: single siRNA against human genes
# Time to read-out: 3 days
# Read-out: 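Nuclei stained with Hoechst and imaged; cell-cycle phase assigned by DNA content; G2 share scaled per plate, non-targeting siRNA 0%, GMNN siRNA 100%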
# Scale: G2 robust z-score and G2 cells, % of GMNN control: higher = more G2 cells, more excess DNA replication; raw share of cells in G2: higher = larger share of cells with G2 DNA content
# Hit rule: 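An siRNA counts as active if its G2 robust z-score lies at least 5 MADs above the screen median; here such calls match roughly 38% of GMNN control or more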
# Here is a random part of about 59,000 reagents tested. Of all reagents, about 1,550 (2.6%) got an active call. 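G2 share is only a proxy for re-replication; each gene was hit by three separate siRNAs, and active genes were retested.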 Raw values vary from plate to plate and are shown uncorrected. A number with no mark means an inactive call. Reagents against one gene are numbered here. The record does not give: the amount of reagent.
gene knocked down,siRNA no.,G2 robust z-score,"G2 cells, % of GMNN control",raw share of cells in G2 (%)
SFXN4 (sideroflexin 4),1,-1.3,-6.15,2.33
SFXN4 (sideroflexin 4),2,-0.439,-0.121,4.43
SFXN4 (sideroflexin 4),3,6.52 (active),48.9,28.4
RPS11P5 (ribosomal protein S11 pseudogene 5),1,1.75,15.3,9.34
RPS11P5 (ribosomal protein S11 pseudogene 5),2,2.29,19,9.59
RPS11P5 (ribosomal protein S11 pseudogene 5),3,-0.368,0.375,3.74
TXNIP (thioredoxin interacting protein),1,1.47,13.3,10.2
TXNIP (thioredoxin interacting protein),2,1.61,14.3,10
TXNIP (thioredoxin interacting protein),3,-0.643,-1.56,2.59
ZSCAN21 (zinc finger and SCAN domain containing 21),1,0.9,9.3,9.53
ZSCAN21 (zinc finger and SCAN domain containing 21),2,-0.568,-1.03,3.88
ZSCAN21 (zinc finger and SCAN domain containing 21),3,1.01,10.1,7.79
MED14 (mediator complex subunit 14),1,0.751,8.25,7.66
MED14 (mediator complex subunit 14),2,0.836,8.85,8.37
MED14 (mediator complex subunit 14),3,0.357,5.48,7.03
IQGAP2 (IQ motif containing GTPase activating protein 2),1,3.44,27.2,17.5
IQGAP2 (IQ motif containing GTPase activating protein 2),2,-0.965,-3.82,4.97
IQGAP2 (IQ motif containing GTPase activating protein 2),3,-1.22,-5.61,2.03
LOC100287477 (zinc finger protein 420-like),1,-0.944,-3.67,2.39
LOC100287477 (zinc finger protein 420-like),2,0.822,8.75,6.47
LOC100287477 (zinc finger protein 420-like),3,0.323,5.24,4.71
LINS1 (lines homolog 1),1,-0.407,0.102,4.56
LINS1 (lines homolog 1),2,2.32,19.3,12.1
LINS1 (lines homolog 1),3,2.55,20.9,9.81
CST8 (cystatin 8),1,1.11,10.8,9.13
CST8 (cystatin 8),2,-0.921,-3.51,2
CST8 (cystatin 8),3,0.378,5.62,7.33
PRDX6 (peroxiredoxin 6),1,1.2,11.4,9.53
PRDX6 (peroxiredoxin 6),2,1.59,14.2,10.5
PRDX6 (peroxiredoxin 6),3,-0.271,1.06,3.56
VMP1 (vacuole membrane protein 1),1,-0.165,1.81,4.71
VMP1 (vacuole membrane protein 1),2,-0.337,0.593,3.63
VMP1 (vacuole membrane protein 1),3,-0.636,-1.51,1.95
MLC1 (modulator of VRAC current 1),1,0.451,6.14,5.97
MLC1 (modulator of VRAC current 1),2,-1,-4.08,2.79
MLC1 (modulator of VRAC current 1),3,0.11,3.74,7.87
PSME1 (proteasome activator subunit 1),1,0.572,6.99,7.95
PSME1 (proteasome activator subunit 1),2,-0.282,0.986,4.61
PSME1 (proteasome activator subunit 1),3,0.256,4.77,5.08
NAE1 (NEDD8 activating enzyme E1 subunit 1),1,-0.107,2.21,5.5
NAE1 (NEDD8 activating enzyme E1 subunit 1),2,0.474,6.3,7.48
NAE1 (NEDD8 activating enzyme E1 subunit 1),3,3.52,27.7,17.1
DDX46 (DEAD-box helicase 46),1,0.0544,3.35,4.34
DDX46 (DEAD-box helicase 46),2,3.2,25.5,15.1
DDX46 (DEAD-box helicase 46),3,0.108,3.72,6.61
TBCEL (tubulin folding cofactor E like),1,4.38,33.8,14.7
TBCEL (tubulin folding cofactor E like),2,-0.21,1.49,3.68
TBCEL (tubulin folding cofactor E like),3,0.178,4.22,5
EIF1B (eukaryotic translation initiation factor 1B),1,0.152,4.04,7.15
EIF1B (eukaryotic translation initiation factor 1B),2,1.2,11.4,8.71
EIF1B (eukaryotic translation initiation factor 1B),3,-0.493,-0.5,3.22
NDUFA1 (NADH:ubiquinone oxidoreductase subunit A1),1,-0.0701,2.47,6.32
NDUFA1 (NADH:ubiquinone oxidoreductase subunit A1),2,-0.281,0.987,3.52
NDUFA1 (NADH:ubiquinone oxidoreductase subunit A1),3,1.63,14.4,11.2
ADGRE2 (adhesion G protein-coupled receptor E2),1,-1.36,-6.63,3.47
ADGRE2 (adhesion G protein-coupled receptor E2),2,-1.06,-4.49,2.95
ADGRE2 (adhesion G protein-coupled receptor E2),3,-0.765,-2.41,2.53
OR1C1 (olfactory receptor family 1 subfamily C member 1),1,2.4,19.8,11.9
OR1C1 (olfactory receptor family 1 subfamily C member 1),2,0.263,4.82,6.03
OR1C1 (olfactory receptor family 1 subfamily C member 1),3,-0.433,-0.0801,3.27
BCORL1 (BCL6 corepressor like 1),1,-0.294,0.902,4.97
BCORL1 (BCL6 corepressor like 1),2,3.55,27.9,17.1
BCORL1 (BCL6 corepressor like 1),3,-0.358,0.445,2.81
DNAJA4 (DnaJ heat shock protein family (Hsp40) member A4),1,0.185,4.27,4.3
DNAJA4 (DnaJ heat shock protein family (Hsp40) member A4),2,-1.22,-5.62,3.37
DNAJA4 (DnaJ heat shock protein family (Hsp40) member A4),3,-0.959,-3.78,2.44
"FEV (FEV transcription factor, ETS family member)",1,1.17,11.2,11
"FEV (FEV transcription factor, ETS family member)",2,-0.206,1.52,4.8
"FEV (FEV transcription factor, ETS family member)",3,-0.27,1.07,4.21
